Results from PubChem BioAssay AID2685 (National Center for Advancing Translational Sciences (NCATS), 2010).
About 2,100 (0.66%) of roughly 320,000 compounds were called active. This list was built around the results that the source calls inconclusive (neither active nor inactive); the mix of calls is not that of the screen. The call rests on the fitted dose curve; in most records, active means well fitted inhibition curve with a large enough effect in the signal ratio, with a control signal flat (not every such curve was filed as active); inconclusive means small, poorly fitted or top-dose-only effect, or effect the other way, or a change in a side signal; inactive means flat fitted curve, though single readings scatter; the % refers to the signal ratio. A potency beside an inconclusive call is a rough fit, not a confirmed value.

Assay: qHTS Assay for Lipid Storage Modulators in Drosophila S3 Cells
Conditions: BODIPY lipid droplet fluorescence, 18-24 h, cells fed with added oleic acid; lipid storage change, negative = inhibition: at 46.1 µM (top of the series) unless noted
How it was run: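 Laser-scanning cytometry quantifies lipid droplet accumulation (500–530 nm total intensity; droplet/cell object ratio) in oleic acid-fed (400 uM added) Drosophila S3 cells treated with a concentration series. 20 uM Triacsin C defined 100% inhibition.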
On the % scale 0 is the no-effect control and ±100 the full control effect; potency means the concentration at half of the fitted maximal effect.

Row | SMILES | Potency | lipid storage change, negative = inhibition
1 | Cc1ccccc1CCNCc1cc2cccc(C)c2[nH]c1=O | inconclusive: 11.6 µM [cytotoxic, single point] | 
2 | O=C(Nc1ccccc1)NC1CC2CCC(C1)N2 (centres undefined) | inconclusive: 1.3 µM [falling, full curve] | 
3 | COC(=O)C1=C(c2ccc(-c3ccccc3)c(F)c2)C[C@@H]2CC[C@H]1N2C(=O)NC1CC1 |  | inconclusive: -62%
4 | Cc1nc2ccccc2c(=O)n1-c1cc(F)ccc1F |  | inconclusive: 14.3%
5 | O=C(Oc1c(Cl)cc(Cl)c2cccnc12)N1CCCCC1 | inconclusive: 8.2 µM [rising, partial curve] | 
6 | Cc1ccc(S(=O)(=O)N2CN3CCN(C3)C2)cc1 |  | inconclusive: -9.67%
7 | COc1cccc(CN2CCN(Cc3cccc(F)c3)CC2)c1 |  | inconclusive: 5.55%
8 | Oc1c(Cl)cc(Cl)cc1CN1CCN(Cc2ccccc2)CC1 |  | inconclusive: -8.48%
9 | CC(=NCc1ccc2c(c1)OCO2)c1c(O)n(-c2ccc(C)cc2)c(=O)[nH]c1=O |  | inconclusive: 14.5%
10 | O=C1CCN(C(=O)C(Cl)Cl)N1 |  | inconclusive: -23.7%
11 | C=CCn1c(O)c(C(CC)=Nc2ccc(N(CC)CC)cc2)c(=O)[nH]c1=O |  | inconclusive: 5.66%
12 | COc1ccc(F)cc1C(=O)C1CCCN(Cc2ccc(O)cc2)C1 (centres undefined) |  | inconclusive: 13.2%
13 | Cc1nc2ccccc2c(=O)n1-c1ccc(C(=O)O)cc1 |  | inconclusive: -30.8%
14 | CC(=O)OCC(=O)[C@H]1CC[C@H]2[C@@H]3CC[C@H]4C[C@H](O)CC[C@]4(C)[C@H]3C(=O)C[C@]12C |  | inconclusive: 5.92%
15 | Fc1ccc2c(c1)nnn2C1CCN(Cc2nnnn2C2CCCCC2)CC1 |  | inconclusive: 9.28%
16 | COC(=O)C1=C(c2cccc(C#N)c2)C[C@@H]2CC[C@H]1N2C(=O)NCc1cccc2ccccc12 |  | inconclusive: -39.7%
17 | O=c1[nH]c(CN2CC=C(c3ccccc3)CC2)nc2scc(-c3cccs3)c12 | inconclusive: 6.51 µM [cytotoxic, single point] | 
18 | CC[C@@]1(O)C(=O)OCc2c1cc1n(c2=O)Cc2cc3c(NC(=O)CN)cccc3nc2-1 | inconclusive: 29.1 µM [activator, single point] | 
19 | CC/C(=N\NC(=O)c1ccccc1)c1c(O)n(C2CCCCC2)c(=O)[nH]c1=O | inconclusive: 8.2 µM [falling, partial curve] | 
20 | C=CCn1c(O)c(/C=N/N2CCOCC2)c(=O)[nH]c1=S | inconclusive: 0.184 µM [falling, full curve, poor fit] | 
21 | CC(C)OP(C)(=O)CN1CCN(CP(C)(=O)OC(C)C)CC1 (centres undefined) | inconclusive: 0.0164 µM [falling, full curve, poor fit] | 
22 | O=C1NC(=O)N(CCC2=CCCCC2)C(=O)/C1=C/c1cccs1 | inconclusive: 0.0052 µM [falling, full curve, poor fit] | 
23 | O=C(CN1CCN(c2ccccc2F)CC1)Nc1cccnc1Cl |  | inconclusive: -28.3%
24 | O=c1c2cc([N+](=O)[O-])ccc2nc(CN2CCOCC2)n1-c1ccccc1F |  | inconclusive: -22.8%
25 | NC(=O)C1CCN(/C=C2\C(=O)NC(=O)N(Cc3ccco3)C2=O)CC1 |  | inactive

Arranged by molecular weight (smallest number first): part of the list above.
Row | SMILES | Potency | lipid storage change, negative = inhibition
23 | O=C(CN1CCN(c2ccccc2F)CC1)Nc1cccnc1Cl |  | inconclusive: -28.3%
17 | O=c1[nH]c(CN2CC=C(c3ccccc3)CC2)nc2scc(-c3cccs3)c12 | inconclusive: 6.51 µM [cytotoxic, single point] | 
3 | COC(=O)C1=C(c2ccc(-c3ccccc3)c(F)c2)C[C@@H]2CC[C@H]1N2C(=O)NC1CC1 |  | inconclusive: -62%

Further records follow.

Row | SMILES | Potency | lipid storage change, negative = inhibition
26 | O=C(COc1ccccc1)NCCc1cnc[nH]1 |  | inconclusive: 16.6%
27 | Cc1ccc2c(c1)C1CN(C)CCC1N2C(=O)c1cn(-c2ccccc2)nc1-c1ccccc1 (centres undefined) | inconclusive: 0.0517 µM [falling, full curve, poor fit] | 
28 | O=P(O)(O)COc1ccccc1O |  | inconclusive: 10%
29 | CCCCn1c(=O)c(C(=O)Nc2ccccc2S(N)(=O)=O)c(O)c2ccccc21 | inconclusive: 14.6 µM [activator, partial curve] | 
30 | CN(C)c1ccc(NC(=O)CN2C(=O)CN=C(c3ccccc3)c3cc(Cl)ccc32)cc1 |  | inactive
31 | CCC(=NCCc1ccccc1)c1c(O)n(C)c(=O)n(C)c1=O |  | inconclusive: 10.2%
32 | COC(=O)C1=Nc2ccccc2/C1=C\c1c(O)n(C)c(=O)n(C)c1=O |  | inconclusive: 27.6%
33 | COc1cc(/C=C2\C(=O)NC(=O)N(c3ccccc3)C2=O)c([N+](=O)[O-])cc1OC |  | inconclusive: 20.1%
34 | O=C(c1ccc(CNS(=O)(=O)c2ccccc2)cc1)N1CCC2(CC1)OCCO2 |  | inconclusive: 1.11%
35 | c1ccc(C2OCCN3CCCCC23)cc1 (centres undefined) |  | inconclusive: -1.48%
36 | O=C(O)COc1ccccc1 |  | inconclusive: 0.506%
37 | CC(=O)Nc1ccc(C(=O)OCC(=O)Nc2ccc(Cl)cc2C(=O)c2ccccc2)cc1 | inconclusive: 2.06 µM [rising, partial curve] | 
38 | CC/C(=N\Nc1ccccc1)c1c(O)n(-c2ccccc2)c(=O)[nH]c1=O |  | inconclusive: 4.87%
39 | COc1ccc(OCC#CCN2CCCCCC2)cc1 |  | inconclusive: 17.2%
40 | COC(=O)C1=C(c2ccc(F)cc2F)C[C@@H]2CC[C@H]1N2C(=O)NCCNC(C)=O | inconclusive: 0.0046 µM [activator, full curve, poor fit] | 
41 | Clc1ccc2c(c1)C(c1ccccc1Cl)=NCc1nnc(N3CCN(CCSc4ccccc4)CC3)n1-2 |  | inconclusive: -30.5%
42 | CN1CCN(CP(=O)(N2CCOCC2)N2CCOCC2)CC1 | active: 5.8 µM | 
43 | CCC(C)(C)n1nnnc1C(c1cccs1)N1CC=C(c2ccc(F)cc2)CC1 (centres undefined) |  | inconclusive: 8.76%
44 | COc1ccc(OCC(=O)N2CCN(CC3CC4C=CC3C4)CC2)cc1 (centres undefined) |  | inconclusive: 34.5%
45 | Cc1cc(OCC(=O)N[C@H](C(=O)O)c2ccccc2)c2c3c(c(=O)oc2c1)CCC3 |  | inconclusive: 38.9%
46 | N=c1n(CCO)c2ccccc2n1Cc1ccccc1 | inconclusive: 29.1 µM [falling, single point] | 
47 | Cc1ccc(Sc2ccc(C=C3C(=O)N(C)C(=O)N(C)C3=O)o2)cc1 |  | inconclusive: 105%
48 | CCOC(=O)c1c(NC(NC(=O)CF)C(Cl)(Cl)Cl)sc2c1CCCC2 (centres undefined) |  | inconclusive: 23.7%
49 | CCOC(=O)C1=C(C)OC(N)=C(C(=O)OCC)[C@@]12C(=O)N(CC(N)=O)c1ccccc12 |  | inconclusive: -0.247%
